Laboratory results: publication doi:10.1101/2020.02.22.960971
Like-named read-outs stand apart in the source and are kept apart here. Results are given in words; binding and its absence hold for the method and conditions named. In cells and extracts the contact can be indirect. These calls come from enrichment with a bait or labelling near it, and not all partners need be listed. Values belong to the molecule of their own block, whether it stands above or below them.

Chains of the proteins cited; added tags and fusions are not shown.
UniProt P53396: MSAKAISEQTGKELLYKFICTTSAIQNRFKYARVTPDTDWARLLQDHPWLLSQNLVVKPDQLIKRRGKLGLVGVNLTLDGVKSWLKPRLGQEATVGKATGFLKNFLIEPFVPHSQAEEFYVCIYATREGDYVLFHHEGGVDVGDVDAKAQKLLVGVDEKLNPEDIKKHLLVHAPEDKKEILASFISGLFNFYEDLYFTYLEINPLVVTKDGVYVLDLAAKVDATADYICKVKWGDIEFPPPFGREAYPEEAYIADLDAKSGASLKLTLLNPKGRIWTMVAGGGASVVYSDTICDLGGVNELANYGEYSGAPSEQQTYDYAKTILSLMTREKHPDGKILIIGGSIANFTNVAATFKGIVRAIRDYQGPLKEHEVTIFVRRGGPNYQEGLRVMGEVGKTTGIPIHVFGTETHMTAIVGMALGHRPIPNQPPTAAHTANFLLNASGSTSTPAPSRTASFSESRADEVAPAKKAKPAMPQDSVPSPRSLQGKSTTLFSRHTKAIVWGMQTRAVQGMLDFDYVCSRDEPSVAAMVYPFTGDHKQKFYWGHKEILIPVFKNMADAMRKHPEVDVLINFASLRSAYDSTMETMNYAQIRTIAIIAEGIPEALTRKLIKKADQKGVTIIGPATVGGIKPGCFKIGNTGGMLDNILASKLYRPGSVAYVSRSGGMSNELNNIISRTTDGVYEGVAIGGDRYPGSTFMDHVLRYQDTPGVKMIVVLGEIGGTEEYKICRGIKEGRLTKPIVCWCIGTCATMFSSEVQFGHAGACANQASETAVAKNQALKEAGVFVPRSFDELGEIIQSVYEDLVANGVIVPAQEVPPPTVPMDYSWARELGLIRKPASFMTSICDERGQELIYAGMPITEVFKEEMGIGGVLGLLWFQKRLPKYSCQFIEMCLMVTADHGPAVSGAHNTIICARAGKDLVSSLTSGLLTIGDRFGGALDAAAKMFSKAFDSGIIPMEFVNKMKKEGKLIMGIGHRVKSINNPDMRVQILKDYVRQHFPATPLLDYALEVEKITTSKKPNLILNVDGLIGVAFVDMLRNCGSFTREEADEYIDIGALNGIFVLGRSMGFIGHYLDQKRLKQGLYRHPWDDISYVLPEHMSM

Legend:
Experiment in all cases: affinity purification with mass spectrometry
[1] = molecular target: SLC25A1 (endogenous) (human (endogenous in HAP1)) (UniProt P53007)
[2] = molecular target: FLAG-SLC25A1 (human) (UniProt P53007)
[3] = molecular target: SLC25A1 (endogenous) (human (endogenous in HAP1)) (UniProt P53007); remark: listed apart in the source

- binding [1]: binds
Molecule: ATP citrate lyase (ACLY) (from UniProt P53396 1-1101)

- binding [2]: binds
B1: DDX28 (protein, UniProt Q9NUL7 1-540)
chain: MALTRPVRLFSLVTRLLLAPRRGLTVRSPDEPLPVVRIPVALQRQLEQRQSRRRNLPRPVLVRPGPLLVSARRPELNQPARLTLGRWERAPLASQGWKSRRARRDHFSIERAQQEAPAVRKLSSKGSFADLGLEPRVLHALQEAAPEVVQPTTVQSSTIPSLLRGRHVVCAAETGSGKTLSYLLPLLQRLLGQPSLDSLPIPAPRGLVLVPSRELAQQVRAVAQPLGRSLGLLVRDLEGGHGMRRIRLQLSRQPSADVLVATPGALWKALKSRLISLEQLSFLVLDEADTLLDESFLELVDYILEKSHIAEGPADLEDPFNPKAQLVLVGATFPEGVGQLLNKVASPDAVTTITSSKLHCIMPHVKQTFLRLKGADKVAELVHILKHRDRAERTGPSGTVLVFCNSSSTVNWLGYILDDHKIQHLRLQGQMPALMRVGIFQSFQKSSRDILLCTDIASRGLDSTGVELVVNYDFPPTLQDYIHRAGRVGRVGSEVPGTVISFVTHPWDVSLVQKIELAARRRRSLPGLASSVKEPLPQAT

- binding [2]: binds
B2: DHX30 (protein, UniProt Q7L2E3 1-1194)
chain: MFSLDSFRKDRAQHRQRQCKLPPPRLPPMCVNPTPGGTISRASRDLLKEFPQPKNLLNSVIGRALGISHAKDKLVYVHTNGPKKKKVTLHIKWPKSVEVEGYGSKKIDAERQAAAAACQLFKGWGLLGPRNELFDAAKYRVLADRFGSPADSWWRPEPTMPPTSWRQLNPESIRPGGPGGLSRSLGREEEEDEEEELEEGTIDVTDFLSMTQQDSHAPLRDSRGSSFEMTDDDSAIRALTQFPLPKNLLAKVIQIATSSSTAKNLMQFHTVGTKTKLSTLTLLWPCPMTFVAKGRRKAEAENKAAALACKKLKSLGLVDRNNEPLTHAMYNLASLRELGETQRRPCTIQVPEPILRKIETFLNHYPVESSWIAPELRLQSDDILPLGKDSGPLSDPITGKPYVPLLEAEEVRLSQSLLELWRRRGPVWQEAPQLPVDPHRDTILNAIEQHPVVVISGDTGCGKTTRIPQLLLERYVTEGRGARCNVIITQPRRISAVSVAQRVSHELGPSLRRNVGFQVRLESKPPSRGGALLFCTVGILLRKLQSNPSLEGVSHVIVDEVHERDVNTDFLLILLKGLQRLNPALRLVLMSATGDNERFSRYFGGCPVIKVPGFMYPVKEHYLEDILAKLGKHQYLHRHRHHESEDECALDLDLVTDLVLHIDARGEPGGILCFLPGWQEIKGVQQRLQEALGMHESKYLILPVHSNIPMMDQKAIFQQPPVGVRKIVLATNIAETSITINDIVHVVDSGLHKEERYDLKTKVSCLETVWVSRANVIQRRGRAGRCQSGFAYHLFPRSRLEKMVPFQVPEILRTPLENLVLQAKIHMPEKTAVEFLSKAVDSPNIKAVDEAVILLQEIGVLDQREYLTTLGQRLAHISTDPRLAKAIVLAAIFRCLHPLLVVVSCLTRDPFSSSLQNRAEVDKVKALLSHDSGSDHLAFVRAVAGWEEVLRWQDRSSRENYLEENLLYAPSLRFIHGLIKQFSENIYEAFLVGKPSDCTLASAQCNEYSEEEELVKGVLMAGLYPNLIQVRQGKVTRQGKFKPNSVTYRTKSGNILLHKSTINREATRLRSRWLTYFMAVKSNGSVFVRDSSQVHPLAVLLLTDGDVHIRDDGRRATISLSDSDLLRLEGDSRTVRLLKELRRALGRMVERSLRSELAALPPSVQEEHGQLLALLAELLRGPCGSFDVRKTADD

- binding [2]: binds
B3: poly(A) polymerase (MTPAP) (protein, UniProt Q9NVV4 38-582)
chain: KDLRRDEQPSGSVETGFEDKIPKRRFSEMQNERREQAQRTVLIHCPEKISENKFLKYLSQFGPINNHFFYESFGLYAVVEFCQKESIGSLQNGTHTPSTAMETAIPFRSRFFNLKLKNQTSERSRVRSSNQLPRSNKQLFELLCYAESIDDQLNTLLKEFQLTEENTKLRYLTCSLIEDMAAAYFPDCIVRPFGSSVNTFGKLGCDLDMFLDLDETRNLSAHKISGNFLMEFQVKNVPSERIATQKILSVLGECLDHFGPGCVGVQKILNARCPLVRFSHQASGFQCDLTTNNRIALTSSELLYIYGALDSRVRALVFSVRCWARAHSLTSSIPGAWITNFSLTMMVIFFLQRRSPPILPTLDSLKTLADAEDKCVIEGNNCTFVRDLSRIKPSQNTETLELLLKEFFEYFGNFAFDKNSINIRQGREQNKPDSSPLYIQNPFETSLNISKNVSQSQLQKFVDLARESAWILQQEDTDRPSISSNRPWGLVSLLLPSAPNRKSFTKKKSNKFAIETVKNLLESLKGNRTENFTKTSGKRTISTQT

- binding [3]: binds
B4: RARS (protein, UniProt P54136 1-660)
chain: MDVLVSECSARLLQQEEEIKSLTAEIDRLKNCGCLGASPNLEQLQEENLKLKYRLNILRKSLQAERNKPTKNMINIISRLQEVFGHAIKAAYPDLENPPLLVTPSQQAKFGDYQCNSAMGISQMLKTKEQKVNPREIAENITKHLPDNECIEKVEIAGPGFINVHLRKDFVSEQLTSLLVNGVQLPALGENKKVIVDFSSPNIAKEMHVGHLRSTIIGESISRLFEFAGYDVLRLNHVGDWGTQFGMLIAHLQDKFPDYLTVSPPIGDLQVFYKESKKRFDTEEEFKKRAYQCVVLLQGKNPDITKAWKLICDVSRQELNKIYDALDVSLIERGESFYQDRMNDIVKEFEDRGFVQVDDGRKIVFVPGCSIPLTIVKSDGGYTYDTSDLAAIKQRLFEEKADMIIYVVDNGQSVHFQTIFAAAQMIGWYDPKVTRVFHAGFGVVLGEDKKKFKTRSGETVRLMDLLGEGLKRSMDKLKEKERDKVLTAEELNAAQTSVAYGCIKYADLSHNRLNDYIFSFDKMLDDRGNTAAYLLYAFTRIRSIARLANIDEEMLQKAARETKILLDHEKEWKLGRCILRFPEILQKILDDLFLHTLCDYIYELATAFTEFYDSCYCVEKDRQTGKILKVNMWRMLLCEAVAAVMAKGFDILGIKPVQRM
